From PubChem BioAssay AID2551 (National Center for Advancing Translational Sciences (NCATS), 2010)
Out of some 310,000 compounds screened, about 17,000 (5.5%) were called active. Inconclusive results, whose numbers are uncertain, are shown with a selection of clear calls. The call rests on the fitted dose curve; in most records, active means well fitted inhibition curve with a large enough effect; inconclusive means small, poorly fitted or top-dose-only effect, or effect the other way; inactive means no such curve, though single readings can be large or run the other way. A potency beside an inconclusive call is a rough fit, not a confirmed value.

Amino acid sequences for entries named in this document (tags omitted). A change or cut given only in a name is not applied to a line headed by its entry.
UniProt P51450: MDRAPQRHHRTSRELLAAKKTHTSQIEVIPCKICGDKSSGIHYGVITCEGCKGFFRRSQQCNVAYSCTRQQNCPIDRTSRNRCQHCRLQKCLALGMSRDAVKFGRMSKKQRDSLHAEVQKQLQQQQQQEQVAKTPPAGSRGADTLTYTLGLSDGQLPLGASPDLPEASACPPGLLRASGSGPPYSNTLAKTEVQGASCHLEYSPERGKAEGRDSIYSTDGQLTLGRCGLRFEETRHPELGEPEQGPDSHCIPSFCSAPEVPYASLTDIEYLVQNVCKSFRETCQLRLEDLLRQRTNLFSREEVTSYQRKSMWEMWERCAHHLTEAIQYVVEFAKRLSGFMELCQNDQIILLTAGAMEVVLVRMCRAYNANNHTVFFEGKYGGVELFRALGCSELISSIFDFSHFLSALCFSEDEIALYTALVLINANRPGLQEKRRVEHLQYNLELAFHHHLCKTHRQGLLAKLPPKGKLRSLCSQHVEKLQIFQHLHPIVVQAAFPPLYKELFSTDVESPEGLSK

Target: Nuclear receptor ROR-gamma (Mus musculus) (UniProt P51450)
Assay: qHTS for inhibitors of ROR gamma transcriptional activity; further: nearly all actives have a fitted effect of over 60% in size
Settings: Drosophila S2 Gal4-RORgamma UAS-luciferase reporter, 20 h; activity change, negative = inhibition: at 53.6 µM (top of the series)
Procedure, shortened: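 ROR gamma transcriptional activity was tracked as Gal4-UAS luciferase output in stably transfected Drosophila Schneider cells, with compound added 1 hr before 700 uM copper sulfate induction and a 20 hr ambient-temperature incubation.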
On the % scale 0 is the no-effect control and ±100 the full control effect; potency means the concentration at half of the fitted maximal effect.

Row | Structure (SMILES) | Potency | activity change, negative = inhibition
1 | CCCCOc1ccc(C(=O)NNC(=O)C2C3C=CC(C3)C2C(=O)O)cc1 (stereo unspecified) | inconclusive: 12.6 µM [activator, partial curve] | –
2 | COC(=O)C(C)Oc1ccc(-c2nccc(-c3cccs3)n2)cc1 (stereo unspecified) | inconclusive: 35.5 µM [inhibitor, single point] | –
3 | COc1ccc(CNC(=O)c2cnn3c(C(F)F)cc(C)nc23)cc1 | inconclusive: 17.8 µM [activator, single point] | –
4 | Cc1ccc(C(=O)/C=C2\NCC(C)NC2=O)cc1 (stereo unspecified) | active: 8.91 µM | –
5 | COc1ccccc1CNC(=O)[C@@H]1CCCN1C(=O)C1CCN(S(=O)(=O)c2ccc(C)cc2)CC1 | inconclusive: 20 µM [activator, single point] | –
6 | Cc1ccc(-c2nc(SCC(=O)NCC3CCCO3)c(-c3ccc(Cl)cc3)[nH]2)cc1 (stereo unspecified) | inconclusive: 11.2 µM [activator, single point] | –
7 | Cc1cccc(NC(=O)CSc2nc3c(oc4ccccc43)c(=O)n2-c2ccccc2)c1 | inconclusive: 8.91 µM [activator, partial curve] | –
8 | Cc1noc(/C=C/N(C)C)c1S(=O)(=O)N1CCCC(C(=O)NCc2ccc(Cl)cc2)C1 (stereo unspecified) | inconclusive: 11.2 µM [activator, partial curve] | –
9 | CCOC(=O)c1cnc2c(C(F)(F)F)cccc2c1N1CCN(C)CC1 | – | inactive: 0.976%
10 | CC(C)C(=O)N1CCN(c2ccc(NC(=O)c3ccc([N+](=O)[O-])o3)cc2Cl)CC1 | inconclusive: 12.6 µM [inhibitor, single point] | –
11 | Cc1ccc(C(c2nnnn2CCc2ccccc2)N2CCC(C)CC2)cc1 (stereo unspecified) | inconclusive: 6.31 µM [activator, single point] | –
12 | N#C/C(=C(/O)C(Cl)c1ccccc1)c1nc2ccccc2s1 (stereo unspecified) | inconclusive: 1.12 µM [inhibitor, partial curve] | –
13 | CCN1C(=O)CC(N2CCC(C(=O)N3CCOCC3)CC2)C1=O (stereo unspecified) | – | inactive: -37.1%
14 | CCn1cc(C(=O)N2CCN(c3ccc(OC)cc3)CC2)c(=O)c2cc(S(=O)(=O)N3CCCCC3)ccc21 | – | inactive: 23.6%
15 | Cc1cc(C)cc(N=Cc2[nH]c3ccc(Br)c(Cl)c3c2O)c1 | – | inactive: -27.3%
16 | Cc1nc(NC(=O)CCc2ccccc2)ccc1Br | inconclusive: 3.55 µM [activator, full curve] | –
17 | CCCCN=C1NC(=O)C(CC(=O)Nc2ccc(Cl)cc2)S1 (stereo unspecified) | – | inactive: 21.2%
18 | CC1(c2ccccc2)NC(=O)N(CC(=O)Nc2nnc(C3CC3)s2)C1=O (stereo unspecified) | – | inactive: 3.49%
19 | CCOC(=O)[C@@H]1[C@H]2COc3ccc(Br)cc3[C@@H]2N2C(=O)N(c3cccc(F)c3)C(=O)[C@@]12C | active: 17.8 µM | –
20 | COc1ccc(S(=O)(=O)Nc2nc3ccccc3nc2NCc2ccc3c(c2)OCO3)cc1 | inconclusive: 22.4 µM [activator, partial curve, poor fit] | –
21 | COc1cc2[nH]c(=O)n(CCC(=O)N3CCN(c4cc(Cl)ccc4C)CC3)c(=O)c2cc1OC | inconclusive: 12.6 µM [activator, single point] | –
22 | CC(=O)N1CCN(c2ccc(NC(=O)c3ccccc3Br)cc2Cl)CC1 | inconclusive: 0.158 µM [activator, full curve, poor fit] | –
23 | Cc1nc(N)sc1-c1csc(Nc2ncccn2)n1 | active: 6.31 µM | –

Ten structures out of the list, sorted by SMILES length, descending.
Row | Structure (SMILES) | Potency | activity change, negative = inhibition
19 | CCOC(=O)[C@@H]1[C@H]2COc3ccc(Br)cc3[C@@H]2N2C(=O)N(c3cccc(F)c3)C(=O)[C@@]12C | active: 17.8 µM | –
14 | CCn1cc(C(=O)N2CCN(c3ccc(OC)cc3)CC2)c(=O)c2cc(S(=O)(=O)N3CCCCC3)ccc21 | – | inactive: 23.6%
10 | CC(C)C(=O)N1CCN(c2ccc(NC(=O)c3ccc([N+](=O)[O-])o3)cc2Cl)CC1 | inconclusive: 12.6 µM [inhibitor, single point] | –
7 | Cc1cccc(NC(=O)CSc2nc3c(oc4ccccc43)c(=O)n2-c2ccccc2)c1 | inconclusive: 8.91 µM [activator, partial curve] | –
18 | CC1(c2ccccc2)NC(=O)N(CC(=O)Nc2nnc(C3CC3)s2)C1=O (stereo unspecified) | – | inactive: 3.49%
22 | CC(=O)N1CCN(c2ccc(NC(=O)c3ccccc3Br)cc2Cl)CC1 | inconclusive: 0.158 µM [activator, full curve, poor fit] | –
15 | Cc1cc(C)cc(N=Cc2[nH]c3ccc(Br)c(Cl)c3c2O)c1 | – | inactive: -27.3%
17 | CCCCN=C1NC(=O)C(CC(=O)Nc2ccc(Cl)cc2)S1 (stereo unspecified) | – | inactive: 21.2%
4 | Cc1ccc(C(=O)/C=C2\NCC(C)NC2=O)cc1 (stereo unspecified) | active: 8.91 µM | –
23 | Cc1nc(N)sc1-c1csc(Nc2ncccn2)n1 | active: 6.31 µM | –

(cont.)

Row | Structure (SMILES) | Potency | activity change, negative = inhibition
24 | N#Cc1c(-c2cccc(Br)c2)cc(-c2cccnc2)nc1N | inconclusive: 35.5 µM [inhibitor, single point] | –
25 | COc1cccc2sc(Nc3nc(-c4ccccn4)cs3)nc12 | active: 0.0447 µM | –
26 | O=C(Nc1nccs1)c1cn2ccccc2n1 | active: 2 µM | –
27 | CN=C1C=C/C(=N/N=c2\ccn(O)cc2C)C=C1C | inconclusive: 15.8 µM [inhibitor, single point] | –
28 | Cc1nc2ccccc2c(=O)n1NC(=O)c1c(O)c2c(n(CC(C)C)c1=O)CCCC2 | inconclusive: 14.1 µM [inhibitor, single point] | –
29 | CN(C)C(=O)/C(C#N)=C\c1cc(Br)c(Sc2ccc(Cl)cc2)o1 | inconclusive: 31.6 µM [inhibitor, single point] | –
30 | COc1ccc(/C=C/C(=O)OCC(=O)Nc2cccc(C(C)=O)c2)cc1 | – | inactive: -8.23% [at 10 µM]
31 | Cc1cc(CN(C)C(=O)c2ccc(OC3CCN(CCc4ccccc4)CC3)cc2)on1 | – | inactive: 15.7%
32 | CC(C)NS(=O)(=O)c1ccc(NC(=S)NC(=O)c2ccc(-c3ccccc3)cc2)cc1 | active: 7.08 µM | –
33 | O=C(/C=C/c1ccccc1)NCCSCc1ccccc1 | inconclusive: 35.5 µM [activator, single point] | –
34 | Cc1ccc(CSc2nsc(C)c2C#N)cc1 | inconclusive: 15.8 µM [activator, single point] | –
35 | c1csc(C2CCCN2c2nc3nonc3nc2NC2CC2)n1 (stereo unspecified) | active: 5.01 µM | –
36 | CCCCCCCNC(=O)C1(CC2CC(c3cccc(Br)c3)=NO2)CCNCC1 (stereo unspecified) | – | inactive: 23.3%
37 | O=[N+]([O-])c1ccc(/C=C/c2ccc3cccc([N+](=O)[O-])c3n2)cc1 | inconclusive: 5.62 µM [activator, single point] | –
38 | CCOc1ccc(/C(O)=C2/C(=O)C(=O)N(CCOCCO)C2c2ccccc2)cc1 (stereo unspecified) | – | inactive: 10.9%
39 | CC(=O)c1c(-c2ccccc2)[nH]c2ccccc12 | inconclusive: 35.5 µM [activator, single point] | –
40 | CCc1ccc(OCC(=O)NC(=S)Nc2cccc(CO)c2)c(Br)c1 | active: 11.2 µM | –
41 | Cc1ccc(SCC2(O)CCN(S(=O)(=O)c3ccc(Cl)cc3)CC2)cc1 | inconclusive: 17.8 µM [activator, partial curve] | –
42 | Clc1ccccc1-c1nn2c(Cn3cnc4ccccc43)nnc2s1 | – | inactive: -38.9%
43 | CCOc1ccc(NC(=O)CSc2n[nH]c(N)n2)c([N+](=O)[O-])c1 | inconclusive: 15.8 µM [activator, single point] | –
44 | Cc1cc2ccccn2c1C(=O)c1ccc(C#N)cc1 | inconclusive: 15.8 µM [activator, single point] | –
45 | Cc1ccc(CN(c2ccc(C(=O)NCc3cccnc3)cc2)S(C)(=O)=O)cc1 | – | inactive: 11.7%
46 | COc1cc(N2C(=O)C=CC2=O)c(OC)cc1Cl | active: 5.62 µM | –
